# Laboratory results reported in PubChem BioAssay AID540256 (National Center for Advancing Translational Sciences (NCATS), 2011).
# Screen size: about 300,000 compounds; about 3,700 (1.2%) were called active. Inconclusive means that the source gave no clear call. Such entries were picked first, then a sample of the others. Calls follow the shape of the full dose curve; tested in HEK293 cells. A potency beside an inconclusive call is a rough fit, not a confirmed value.
# Experiment: qHTS for Inhibitors of binding or entry into cells for Lassa Virus; also: nearly all actives have a fitted effect of over 50% in size
# Conditions: Lassa virus pseudotype entry inhibition, cell reporter; activity change, negative = inhibition: at 37.9 µM (top of the series) unless noted
# % is scaled to controls: 0 for no effect and ±100 for the full control effect; potency is read from the fitted curve at half-maximal effect.
SMILES,Potency,"activity change, negative = inhibition"
O=C(Nc1nc(NC(=O)c2ccco2)n(-c2ccccc2)n1)c1ccccc1,"inconclusive: 2.31 µM [inhibitor, full curve, poor fit]",
O=C(Cn1ncc(Cl)c(Cl)c1=O)N1CCOCC1,"inconclusive: 35.5 µM [inhibitor, single point]",
CC(C)(C)c1ccc(OCC(=O)N2CCCCCC2)c(Br)c1,"inconclusive: 7.94 µM [activator, partial curve]",
O=C(O)c1ccc(N/N=C/c2ccc(OC(=O)c3ccccc3Cl)cc2)cc1,active: 0.708 µM,
COc1ccc(C(=O)Nc2cccc(-c3cn4ccsc4n3)c2)cc1OC,"inconclusive: 7.08 µM [activator, partial curve, poor fit]",
CC(C)n1c(/C=C/c2ccccc2)nc2ccccc21,,inactive: 0.468%
c1cnc2ccc(C(c3nnnn3C3CCCCC3)N3CCCCC3)cc2c1 (stereo not drawn),"inconclusive: 5.62 µM [inhibitor, partial curve, poor fit]",
COc1ccc(-c2csc(N(CCCN(C)C)C(=O)c3ccc(C)cc3)n2)cc1,,inactive: -0.364% [at 46.1 µM]
CCOc1ccc(NC(=O)Cn2c(=O)n(CCc3ccccc3)c(=O)c3c4c(sc32)CCCC4)cc1,,inactive: -6.36% [at 46.1 µM]
CC(C)(C)c1nc(-c2ccccc2)oc1Nc1ccc2ccccc2c1,"inconclusive: 0.168 µM [activator, full curve, poor fit]",
CC(NC(=S)NC1CCCCC1)C(c1ccccc1)N1CCOCC1 (stereo not drawn),"inconclusive: 18.3 µM [activator, single point]",
O=C(/C=C/c1c(F)cccc1Cl)c1ccc(F)cc1,,inactive: -9.8%
CN(Cc1ccccc1)c1nc2c(c(=O)[nH]c(=O)n2C)n1CCOc1ccccc1,"inconclusive: 10 µM [inhibitor, single point]",
CC(Oc1cc(-n2cnc3ccc(OC4CCN(C)CC4)cc32)sc1C(N)=O)c1ccccc1Cl (stereo not drawn),active: 0.199 µM,
CC(C)OC(=O)CC(=O)c1sc2nc3c(cc2c1N)CN(C)CC3,,inactive: -3.92%
COc1ccc(-c2cc3ccccc3n2CC(O)Cn2nc(C)cc2C)cc1 (stereo not drawn),,inactive: -22.2%
Cc1ccc(CCNS(=O)(=O)c2ccc(C)cc2)cc1,"inconclusive: 29.1 µM [activator, single point]",
Cc1ccc(-n2nc3cc(C)c(NC(=O)c4ccc(-c5ccccc5)o4)cc3n2)cc1,,inactive: 25% [at 46.1 µM]
Cc1cccc(-n2cnc3cc(C(=O)N4CCCCC4)ccc32)c1,,inactive: 14.5%
Cc1cc(C)c(C)c(SCC(=O)Nc2oc(C)c3c(C)n[nH]c(=O)c23)c1C,"inconclusive: 1.58 µM [inhibitor, partial curve, poor fit]",
O=C(c1ccc(S(=O)(=O)N2CCOCC2)cc1)N1CCCc2ccccc21,,inactive: -18.6%
COc1cccc(/C=N/n2cnc3c(cnn3-c3ccccc3)c2=O)c1,"inconclusive: 35.5 µM [inhibitor, single point]",
Cc1oc(-c2cccc(Cl)c2)nc1CN1CCC(C(=O)NC(C)C)CC1,"inconclusive: 5.62 µM [inhibitor, full curve, poor fit]",

# Reprinted at random: 4 compounds from above
SMILES,Potency,"activity change, negative = inhibition"
O=C(Cn1ncc(Cl)c(Cl)c1=O)N1CCOCC1,"inconclusive: 35.5 µM [inhibitor, single point]",
COc1ccc(C(=O)Nc2cccc(-c3cn4ccsc4n3)c2)cc1OC,"inconclusive: 7.08 µM [activator, partial curve, poor fit]",
CCOc1ccc(NC(=O)Cn2c(=O)n(CCc3ccccc3)c(=O)c3c4c(sc32)CCCC4)cc1,,inactive: -6.36% [at 46.1 µM]
COc1ccc(-c2cc3ccccc3n2CC(O)Cn2nc(C)cc2C)cc1 (stereo not drawn),,inactive: -22.2%

# Next compounds follow.

SMILES,Potency,"activity change, negative = inhibition"
CN(C)c1ccc(/C=C/c2nnnn2-c2ccccc2)cc1,"inconclusive: 1.26 µM [activator, single point]",
Nc1nc(CSC(=S)N2CCCCC2)nc(Nc2ccccc2)n1,"inconclusive: 35.5 µM [inhibitor, single point]",
CCOC(=O)N1CCN(Cc2nc3c(c(=O)n(C)c(=O)n3C)n2Cc2ccc(F)cc2)CC1,"inconclusive: 20.6 µM [inhibitor, single point]",
O=C(Cn1c(=O)c2sccc2n(Cc2ccc([N+](=O)[O-])cc2)c1=O)NCCc1ccccc1,"inconclusive: 3.98 µM [inhibitor, partial curve]",
COc1cc(NC(=O)c2ccc(COc3ccccc3Br)o2)cc(OC)c1OC,"inconclusive: 20 µM [inhibitor, single point]",
Cc1cc(SCC(=O)OCC(=O)N2CCCC2=O)c(C)cc1Br,"inconclusive: 25.1 µM [inhibitor, partial curve, poor fit]",
O=C(Nc1c(F)c(F)c(F)c(F)c1F)NC1CCCCC1,"inconclusive: 0.0058 µM [inhibitor, full curve, poor fit]",
CC(C)(C)c1csc(NC(=O)CS(=O)(=O)c2ccccc2)n1,"inconclusive: 5.62 µM [inhibitor, single point]",
CCCc1ccc(C2C3=C(CC(C)(C)CC3=O)NC3=C2C(=O)c2ccccc23)cc1 (stereo not drawn),"inconclusive: 29.1 µM [inhibitor, single point]",
CCOc1c(CNCCN2CCOCC2)cccc1OC,"inconclusive: 2.31 µM [inhibitor, single point]",
CN1CCN(c2nc(-c3ccccn3)nc3ccccc23)CC1,,inactive: -15.5%
O=C(c1ccncc1)N1N=C(C2CC2)CC1(O)C(F)(F)F (stereo not drawn),"inconclusive: 2.51 µM [inhibitor, partial curve, poor fit]",
CS(=O)(=O)N1CCc2cc(-c3csc(NC(=O)Cc4cccs4)n3)ccc21,active: 13 µM,
COc1ccc2c(c1)C1C=CCC1C(c1cc3c(cc1Br)OCO3)N2 (stereo not drawn),"inconclusive: 29.1 µM [inhibitor, single point]",
COc1ccc(NS(=O)(=O)c2cccc(N/C(=N\S(=O)(=O)c3ccccc3)c3ccc(F)cc3)c2)cc1,"inconclusive: 29.1 µM [inhibitor, single point]",
Cc1ccc2nc(-c3ccc(NC(=O)Cc4ccccc4)cc3)sc2c1,"inconclusive: 0.708 µM [activator, full curve, poor fit]",
O=C(c1ccc(S(=O)(=O)N2CCOCC2)cc1)N(c1ccccn1)C1CCCCC1,"inconclusive: 11.2 µM [activator, partial curve]",
Cc1ccccc1OCCC(=O)OCC(=O)Nc1ccc(N2CCOCC2)cc1,,inactive: -19.1%
Cc1ccc(NC(=O)CN(Cc2ccco2)Cc2ccccc2O)cc1C,"inconclusive: 10 µM [inhibitor, partial curve, poor fit]",
O=C(Nc1ccc(F)cc1)C1CCCN1S(=O)(=O)c1ccc(Br)cc1 (stereo not drawn),"inconclusive: 10 µM [inhibitor, partial curve, poor fit]",
Cc1nc(N)nc(Nc2ccc(Cl)cc2)c1Br,"inconclusive: 18.3 µM [activator, single point]",
COc1ccc2ccc3c(c2c1)N=CC1(O3)N(C)c2ccccc2C1(C)C (stereo not drawn),,inactive: 0.293%
O=C(Nc1ccccc1N1CCCCC1)c1ccc(F)c(S(=O)(=O)N2CCOCC2)c1,,inactive: -28.6%

SMILES,Potency,"activity change, negative = inhibition"
CCCCNC(=O)CCC1N=C2c3ccccc3N=C(SCC(=O)NCCc3ccc(OC)c(OC)c3)N2C1=O (stereo not drawn),"inconclusive: 10 µM [activator, partial curve, poor fit]",
CC(=O)c1ccc(S(=O)(=O)N2CCN(CC(=O)NC(=O)NC3CCCCC3)CC2)cc1,"inconclusive: 11.2 µM [inhibitor, partial curve, poor fit]",
Cc1ccc(C)c(NC(=O)C2CC(=O)N(C3CCCCC3)C2)c1 (stereo not drawn),,inactive: 9.73% [at 46.1 µM]
CCCNC(=O)NC(=O)COC(=O)c1ccc(OC)c(S(=O)(=O)N2CCCc3ccccc32)c1,"inconclusive: 2.59 µM [inhibitor, single point]",
CCCc1ccc(-c2ccc(F)c(N)c2)nc1,"inconclusive: 2.06 µM [inhibitor, full curve, poor fit]",
Cc1ccc(Cl)cc1N1CCN(C(=O)Cn2cnc3onc(-c4ccc(F)cc4)c3c2=O)CC1,"inconclusive: 31.6 µM [activator, single point]",
O=c1c2nnn(-c3ccc(Br)cc3)c2ncn1Cc1ccccn1,"inconclusive: 0.891 µM [inhibitor, single point]",
O=C(CCn1c(=O)oc2ccccc21)N1CCN(C(c2ccccc2)c2ccccc2)CC1,"inconclusive: 25.1 µM [inhibitor, single point]",
Cc1cc(/C=N/O)c(C)n1-c1ccccc1,,inactive: -2.21% [at 46.1 µM]
COc1ccc(N2CCN(C(=O)CSc3nnc4c(C)cc5cc(C)ccc5n34)CC2)cc1,,inactive: -0.445%
Cc1cc(N/N=C/c2ccc(O)cc2O)nc(-c2ccccc2O)n1,"inconclusive: 5.8 µM [inhibitor, partial curve]",
Cc1ccc(NC(=O)C2SC(=Nc3ccccc3)C(C(=O)Nc3ccc(Cl)cc3)=C2N)cc1 (stereo not drawn),"inconclusive: 7.08 µM [activator, full curve]",
COc1ccccc1S(=O)(=O)Cc1ccc(C(=O)NCc2cccs2)o1,"inconclusive: 7.3 µM [inhibitor, partial curve, poor fit]",
O=C1OC(Cc2ccccn2)C(O)=C1C1=NCCCN1 (stereo not drawn),"inconclusive: 3.16 µM [activator, full curve, poor fit]",
COc1ccc(NC(=O)CN2CCN(S(=O)(=O)N3CCCCCC3)CC2)cc1,"inconclusive: 2 µM [inhibitor, partial curve, poor fit]",
O=C(c1cccs1)N1C[C@@H](O)[C@@H](n2cc(C3CC3)nn2)C[C@@H]1c1ccccc1,,inactive: 8.41% [at 46.1 µM]
COc1cccc(CNC(=O)CSCC(=O)Nc2ccc(C)cc2)c1,,inactive: 0.373%
Oc1ccc(-c2nc(-c3ccc(F)cc3)c(-c3ccncc3)[nH]2)cc1,"inconclusive: 2.31 µM [inhibitor, full curve]",
CCOC(=O)c1ccc(NC(=O)CN2C(=O)C(=O)N(CC(C)C)C2=O)cc1,,inactive: -0.551%
Cc1cc(O)c(C(C)C)cc1NC(=O)Nc1cc(Cl)ccc1Cl,,inactive: -14.7% [at 46.1 µM]
CCc1ccccc1NC(=O)CCNS(=O)(=O)c1ccc2c(c1)CCCC(=O)N2,,inactive: 18.1% [at 46.1 µM]
CCCCn1nc(C(=O)N2CCN(S(=O)(=O)c3ccccc3)CC2)c2ccccc2c1=O,"inconclusive: 2 µM [inhibitor, single point]",
